Data source: PubChem BioAssay AID1259425 (University of Nebraska Medical Center, 2018)
Here is an unselected part of about 14,000 reagents tested. Further read-outs or replicates are left out here. The record does not give: the time to read-out.

- Screen: 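Compare each knockdown with KSR1 silencing using changes in marker transcripts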 (primary screen)
- System: HCT116 human colon cancer cells
- Reagent: siRNA pool against human genes, 50 nM siRNA
- Measured: 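mRNA of six signature genes measured together by branched-DNA assay after 50 nM siRNA pool, blank removed, divided by geometric mean of two housekeeping genes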
- Scale: BNIP3L mRNA: higher = more BNIP3L transcript after knockdown

{"target": "ERCC4 (ERCC excision repair 4, endonuclease catalytic subunit)", "BNIP3L mRNA, set 1": 0.0514}
{"target": "TIMM8A (translocase of inner mitochondrial membrane 8A)", "BNIP3L mRNA, set 1": 0.088}
{"target": "ETNPPL (ethanolamine-phosphate phospho-lyase)", "BNIP3L mRNA, set 1": 0.143}
{"target": "SLC22A11", "BNIP3L mRNA, set 1": 0.095}
{"target": "PSMB1 (proteasome 20S subunit beta 1)", "BNIP3L mRNA, set 1": 0.508}
{"target": "AVIL (advillin)", "BNIP3L mRNA, set 1": 0.117}
{"target": "ADAMDEC1 (ADAM like decysin 1)", "BNIP3L mRNA, set 1": 0.0743}
{"target": "CEACAM19 (CEA cell adhesion molecule 19)", "BNIP3L mRNA, set 1": 0.325}
{"target": "NDUFS3 (NADH:ubiquinone oxidoreductase core subunit S3)", "BNIP3L mRNA, set 1": 0.288}
{"target": "CMPK1 (cytidine/uridine monophosphate kinase 1)", "BNIP3L mRNA, set 1": 0.0724}
{"target": "IKBKE (inhibitor of nuclear factor kappa B kinase subunit epsilon)", "BNIP3L mRNA, set 1": 0.0607}
{"target": "CLRN1 (clarin 1)", "BNIP3L mRNA, set 1": 0.104}
{"target": "IFNA8 (interferon alpha 8)", "BNIP3L mRNA, set 1": 0.0632}
{"target": "LRP4 (LDL receptor related protein 4)", "BNIP3L mRNA, set 1": 0.136}
{"target": "NDUFA3 (NADH:ubiquinone oxidoreductase subunit A3)", "BNIP3L mRNA, set 1": 0.142}
{"target": "RNPEP (arginyl aminopeptidase)", "BNIP3L mRNA, set 1": 0.0443}
{"target": "RPRD2 (regulation of nuclear pre-mRNA domain containing 2)", "BNIP3L mRNA, set 1": 0.197}
{"target": "TJP3 (tight junction protein 3)", "BNIP3L mRNA, set 1": 0.14}
{"target": "CP (ceruloplasmin)", "BNIP3L mRNA, set 1": 0.137}
{"target": "MANEA (mannosidase endo-alpha)", "BNIP3L mRNA, set 1": 0.0982}
{"target": "NGF (nerve growth factor)", "BNIP3L mRNA, set 1": 0.0762}
{"target": "VTA1 (vesicle trafficking 1)", "BNIP3L mRNA, set 1": 0.0675}
{"target": "AGPAT2 (1-acylglycerol-3-phosphate O-acyltransferase 2)", "BNIP3L mRNA, set 1": 0.0641}
{"target": "RIGI (RNA sensor RIG-I)", "BNIP3L mRNA, set 1": 0.0876}
{"target": "STX16 (syntaxin 16)", "BNIP3L mRNA, set 1": 0.104}
{"target": "FANCE (FA complementation group E)", "BNIP3L mRNA, set 1": 0.273}
{"target": "PPT2 (palmitoyl-protein thioesterase 2)", "BNIP3L mRNA, set 1": 0.152}
{"target": "SMG9 (SMG9 nonsense mediated mRNA decay factor)", "BNIP3L mRNA, set 1": 0.0942}
